From PubChem BioAssay AID445 (National Center for Advancing Translational Sciences (NCATS), 2006) come the findings set out here.

The nature of this test: IkB Signaling. The following applies: ABC-DLBCL IkBa-CBG/CBR dual luciferase ratio (green luciferase fused to IkBa over red control in OCI-Ly3 lymphoma cells), 4 h. The gist of the method: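 In this assay, an IκBα–CBG68 fusion accumulates when IKK-driven degradation is blocked; native CBR normalizes for cell number. OCI-Ly3 cells were treated 4 h with compound and doxycycline, then green and red light read after Chroma-Glo addition.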
Setting [1] is: measured here: control luc red channel unless noted.
Where [2] appears, read: measured here: IkB-luc green channel.
The mark [3] stands for this setting: measured here: control luc red channel.

A word on the AC50: it is the concentration at which the activity in the assay is half-maximal.

This is one part of the list. Shown are side measurements of this screen, not its main read-out; they come without a call. The list favours compounds with an active or inconclusive main result. The note in brackets gives the kind of curve behind each potency; many fits are weak.

As to `CC(C)Oc1ccc(CNC(=O)c2ccc3c(c2)N(Cc2ccc(F)cc2)CCS3)cc1`, the AC50 under setting [1] is 20 µM [falling, partial curve].
Still for that read-out and setting: the result for `Cc1c(-c2ccc(Cl)cc2)c(=O)oc2c(CN3CCN(C)CC3)c(O)ccc12` reads 6.31 µM [falling, partial curve].
As for `O=C(O)CCCCCN=C1CCc2ccccc2N1`, the AC50 under setting [1] was 31.6 µM [falling, single point].
Still for that read-out and setting: the result for `COc1cccc2sc(N(Cc3cccnc3)C(=O)C3CCCCC3)nc12` reads 0.631 µM [falling, full curve].
Regarding `CC1CCc2c(sc3nc(-c4cc5ccccc5oc4=O)nc(Cl)c23)C1` (centres undefined), the AC50 under setting [1] is 5.01 µM [rising, partial curve].
With `O=C(CSc1nnc(-c2cnccn2)n1Cc1ccco1)c1ccc(Cl)c(Cl)c1`, the AC50 under setting [1] is 7.94 µM [falling, partial curve].
The same measure, in the same setting: the result for `O=S(=O)(c1cccc2cnccc12)N1CCCNCC1` reads 15.8 µM [falling, partial curve]; that for `CC(C)c1nn2c(=O)cc(COC(=O)c3cccc(NC(=O)c4ccccc4F)c3)nc2s1`, 3.98 µM [falling, partial curve]; that for `O=C(O)CSc1ccc2ccccc2n1`, 7.94 µM [falling, partial curve] [measured here: IkB-luc green channel].
As to `O=C(Nc1cccc(Cl)c1)C(Cc1ccccc1)n1cccc1` (centres undefined), under setting [1], the AC50 was 39.8 µM [falling, single point].
Same read-out and setting: the result for `CCOC(=O)N1CCN(C(=O)Cn2nc(-c3ccc(Cl)cc3)ccc2=O)CC1` reads 25.1 µM [falling, partial curve].
Take `CCOc1ccc(CCNC(=O)CCCc2nnc3n(CCCOC)c(=O)c4sccc4n23)cc1`: under setting [1], the AC50 is 39.8 µM [falling, single point].
On the same count and under the same terms, with `CC(=O)C1=C(C)NC(SCC(=O)c2ccccc2)=C(C#N)C1c1ccco1` (centres undefined) the figure was 31.6 µM [falling, single point]; with `COc1cccc(-c2cc(C(=O)N3CCCCCC3)no2)c1`, 12.6 µM [falling, partial curve].
Turning to `COC(=O)c1cccc(NC(=O)c2cc3sccc3n2C)c1`, the AC50 under setting [2] is 39.8 µM [falling, single point] and the AC50 under setting [3] was 25.1 µM [falling, partial curve].
As for `Cc1ccccc1-c1nc(CS(=O)CC(=O)NCCCN(C)c2ccccc2)c(C)o1` (centres undefined), the AC50 under setting [1] is 12.6 µM [falling, partial curve].
For the compound `COc1ccc(-c2cc(C(F)(F)F)nc(S(C)(=O)=O)n2)cc1OC`, under setting [1], the AC50 is 10 µM [falling, partial curve].
On the same count and under the same terms, with `COc1ccc(N2C(=O)C(CC(=O)Nc3ccc(Cl)cc3)N(Cc3ccc4c(c3)OCO4)C2=O)cc1` (centres undefined) the figure was 25.1 µM [falling, partial curve]; with `Cc1cccc2sc(N(Cc3cccnc3)C(=O)CCS(=O)(=O)c3ccccc3)nc12`, 39.8 µM [falling, single point]; with `O=C(c1ccco1)N1CCN(S(=O)(=O)c2ccc(Br)s2)CC1`, 39.8 µM [rising, single point] [measured here: IkB-luc green channel].
Regarding `Cc1cccc(-c2nc(SCc3cc(=O)c4cccc(F)c4[nH]3)n[nH]2)c1`, the AC50 under setting [1] is 31.6 µM [falling, single point].
As for `Cc1ccc(C)c(N2CCN(C(=O)CN3CCSc4ccccc43)CC2)c1`, under setting [1], the AC50 was 10 µM [falling, partial curve].
Still for that read-out and setting: the result for `CCOc1ccc(CCNC(=O)CSc2nnnn2-c2ccccc2Cl)cc1OCC` reads 15.8 µM [falling, partial curve, poor fit]; that for `CCOc1ccc(-c2nnn(CC(=O)c3ccc4c(c3)OCCO4)n2)cc1OCC`, 39.8 µM [falling, single point].
Still for that read-out and setting: the result for `COc1c(C)cc(Br)cc1C(=O)Nc1cccc(NC(=O)c2ccco2)c1` reads 6.31 µM [falling, partial curve]; that for `Fc1ccc(F)c(Nc2c3c(nc4ccc(Cl)cc24)CCC3)c1`, 20 µM [falling, partial curve].
The same measure, in the same setting: with `CCCN(C#N)c1nc(NCC)nc(NC(C)C)n1` the figure was 7.94 µM [falling, single point]; with `Cc1cc(C)c(NC(=O)C2CCN(C(=O)N3CC(C)Oc4ccc(Cl)cc43)CC2)c(C)c1` (centres undefined), 20 µM [falling, single point].
With `Cc1cc(C)cc(NS(=O)(=O)c2ccc(-c3cc(C)no3)s2)c1`, the AC50 under setting [1] was 25.1 µM [rising, partial curve].
On the same count and under the same terms, with `Cc1ccc(-c2nc3cc(Cl)ccc3o2)cc1NC(=O)c1cc2ccccc2o1` the figure was 1 µM [falling, partial curve]; with `Cc1c(C(=O)N(C)C)sc2c1c(=O)n(-c1ccccc1C(F)(F)F)c(=O)n2Cc1ccccc1C#N`, 25.1 µM [rising, single point]; with `CC(C)Cc1nn2c(=O)cc(COC(=O)c3cccc(NC(=O)c4cccs4)c3)nc2s1`, 0.251 µM [falling, full curve].
With `CC[C@@H](CO)Nc1nc(NCc2ccccc2)c2ncn(C(C)C)c2n1`, the AC50 under setting [2] is 25.1 µM [falling, partial curve] and the AC50 under setting [3] was 20 µM [falling, partial curve].
`Cc1ccccc1Cn1c(=O)n(CC2CCC(C(=O)N3CCC(C)CC3)CC2)c(=O)c2sccc21` (centres undefined): under setting [1], the AC50 was 39.8 µM [falling, single point].
On to `Cc1ccc(NCc2cccn2-c2nnc(N3CCC(C(=O)NCc4ccccc4C)CC3)s2)cc1`, for which the AC50 under setting [1] is 7.94 µM [falling, partial curve].
On the same count and under the same terms, with `COc1ccc(CN2CCCN(CC(=O)Nc3ccc(Br)cc3F)S2(=O)=O)cc1` the figure was 25.1 µM [falling, partial curve]; with `Cc1ccc(-n2ncc(C(=O)NCc3ccc4c(c3)OCO4)c2C2CCN(C(=O)OC(C)(C)C)CC2)cc1C`, 10 µM [falling, partial curve].
As for `CCOc1ccc(NC(=O)CC2Nc3cccc4cccc(c34)NC2=O)cc1` (centres undefined), the AC50 under setting [1] is 39.8 µM [falling, single point].
The same measure, in the same setting: the result for `Cc1cc(-c2ccc(S(=O)(=O)Nc3cccc(C(F)(F)F)c3)s2)on1` reads 20 µM [falling, partial curve]; that for `CC(C)Sc1ncc(Cl)c(C(=O)Nc2nc3ccc(S(C)(=O)=O)cc3s2)n1`, 12.6 µM [falling, partial curve]; that for `CN(C(=O)CSc1nc2ccc(NC(=O)COc3ccc(F)cc3)cc2s1)c1ccccc1`, 20 µM [falling, partial curve].
Take `Cc1cc(C(=O)CSc2nc3ccccc3n2CCC#N)c(C)n1Cc1cccs1`: the AC50 under setting [1] was 20 µM [falling, partial curve].
With `CCN(CC(=O)Nc1ccc2c(c1)OCO2)Cc1nc2ccccc2c(=O)[nH]1`, under setting [1], the AC50 is 20 µM [falling, single point].
Still for that read-out and setting: the result for `O=C(Nc1ccc2nc(-c3ccc(Br)o3)[nH]c2c1)c1ccco1` reads 12.6 µM [falling, partial curve]; that for `CC(=O)N1CCc2c(sc(NC(=O)C3CC3)c2-c2nc3ccccc3s2)C1`, 5.01 µM [falling, partial curve].
Still for that read-out and setting: the result for `CCOc1ccc2c(c1)c(=O)c(S(=O)(=O)c1ccc(CC)cc1)cn2CC` reads 1 µM [falling, partial curve]; that for `CCn1c(SCC(=O)c2ccc(C)cc2)nnc1-c1ccoc1C`, 50.1 nM [rising, partial curve, poor fit] [measured here: IkB-luc green channel]; that for `CCOc1ccccc1-c1noc(CSc2nnc(-c3ccncc3)n2-c2ccc(F)cc2)n1`, 31.6 µM [falling, single point].
Still for that read-out and setting: with `COc1cccc(C(=O)N2CCSC2=S)c1` the figure was 12.6 µM [falling, partial curve].
In the case of `Cn1c(=O)n(Cc2ccccc2Cl)c(=O)c2c1nc1n2CCN1c1ccccc1`, the AC50 under setting [1] was 12.6 µM [falling, partial curve].
Turning to `Cc1c(Cl)cccc1NC(=O)CSc1nc(=O)n(Cc2ccncc2)c2c1CCC2`, under setting [1], the AC50 was 39.8 µM [falling, single point].
Still for that read-out and setting: the result for `Cc1ccc(C(=O)COC(=O)CCCC(=O)Nc2cc(C(F)(F)F)ccc2Cl)cc1C` reads 31.6 µM [falling, partial curve]; that for `Cc1oc(-c2ccc(C(=O)NCCCOC(C)C)cc2)nc1CS(=O)(=O)c1ccccc1`, 25.1 µM [falling, single point]; that for `COc1ccccc1N(CC(=O)NC1CCCC1)C(=O)CCC(=O)Nc1cc(C)on1`, 5.01 µM [falling, partial curve].
Same read-out and setting: with `COC(=O)c1sc(NC(=O)c2ccc(Cn3cc(Cl)cn3)o2)c(C#N)c1C` the figure was 12.6 µM [falling, partial curve]; with `Cc1cc(Nc2ccccc2F)n2nc(Cc3ccc(Cl)cc3)nc2n1`, 0.158 µM [rising, full curve]; with `CC(C)c1noc(-c2ccccc2OCC(=O)Nc2ccccc2[N+](=O)[O-])n1`, 15.8 µM [falling, partial curve].
Same read-out and setting: with `Cc1cc(Nc2ccc(Cl)cc2C)nc(-n2nc(C)cc2C)n1` the figure was 25.1 µM [falling, partial curve, poor fit]; with `O=C(NCc1ccc2c(c1)CCN2C(=O)c1ccc(F)cc1)c1ccco1`, 31.6 µM [rising, partial curve]; with `CCN(C(=O)c1cc2c(=O)n3cccc(C)c3nc2s1)c1ccc(C)c(C)c1`, 20 µM [falling, single point].
For the compound `CCOC(=O)c1ccc(NC(=O)C2(S(=O)(=O)c3ccc(Cl)cc3)CC2)cc1`, the AC50 under setting [1] was 25.1 µM [falling, partial curve, poor fit].
On the same count and under the same terms, with `Cc1cccc(C)c1NS(=O)(=O)c1ccc(NS(=O)(=O)c2ccc3c(c2)OCCO3)cc1` the figure was 25.1 µM [falling, partial curve].
